{"sequences": {"note": "Chains of the proteins cited; added tags and fusions are not shown. Residues count along the entry.", "UniProt P35441, residues 19-1170": "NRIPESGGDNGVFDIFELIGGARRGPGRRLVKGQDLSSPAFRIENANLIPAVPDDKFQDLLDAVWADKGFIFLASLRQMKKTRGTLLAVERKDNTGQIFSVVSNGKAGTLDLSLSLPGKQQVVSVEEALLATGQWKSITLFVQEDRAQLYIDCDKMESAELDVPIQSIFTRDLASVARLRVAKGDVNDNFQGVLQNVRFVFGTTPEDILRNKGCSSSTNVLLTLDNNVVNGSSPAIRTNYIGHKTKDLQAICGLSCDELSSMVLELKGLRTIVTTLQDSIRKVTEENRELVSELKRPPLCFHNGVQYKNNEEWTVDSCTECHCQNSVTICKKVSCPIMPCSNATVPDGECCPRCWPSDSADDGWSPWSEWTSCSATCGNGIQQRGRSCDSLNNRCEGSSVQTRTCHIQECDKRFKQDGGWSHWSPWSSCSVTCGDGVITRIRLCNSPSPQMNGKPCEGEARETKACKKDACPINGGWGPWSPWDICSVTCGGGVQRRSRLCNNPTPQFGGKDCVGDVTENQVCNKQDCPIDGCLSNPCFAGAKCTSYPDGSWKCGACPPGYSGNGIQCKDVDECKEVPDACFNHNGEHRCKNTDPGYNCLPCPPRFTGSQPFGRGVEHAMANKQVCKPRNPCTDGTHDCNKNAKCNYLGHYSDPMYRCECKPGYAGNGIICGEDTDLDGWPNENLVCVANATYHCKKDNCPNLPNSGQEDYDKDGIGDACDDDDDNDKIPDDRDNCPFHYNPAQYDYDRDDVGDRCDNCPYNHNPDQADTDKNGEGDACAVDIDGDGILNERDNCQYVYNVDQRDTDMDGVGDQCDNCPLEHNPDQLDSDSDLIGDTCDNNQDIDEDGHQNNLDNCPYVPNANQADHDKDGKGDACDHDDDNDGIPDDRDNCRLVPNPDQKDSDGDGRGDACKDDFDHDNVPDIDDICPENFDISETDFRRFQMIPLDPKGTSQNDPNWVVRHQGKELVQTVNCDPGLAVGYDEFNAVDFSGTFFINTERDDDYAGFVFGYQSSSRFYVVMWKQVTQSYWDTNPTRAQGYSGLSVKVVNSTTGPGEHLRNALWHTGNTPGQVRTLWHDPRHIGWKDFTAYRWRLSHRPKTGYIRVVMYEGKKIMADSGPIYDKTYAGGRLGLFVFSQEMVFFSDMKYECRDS", "UniProt P09055, residues 21-798": "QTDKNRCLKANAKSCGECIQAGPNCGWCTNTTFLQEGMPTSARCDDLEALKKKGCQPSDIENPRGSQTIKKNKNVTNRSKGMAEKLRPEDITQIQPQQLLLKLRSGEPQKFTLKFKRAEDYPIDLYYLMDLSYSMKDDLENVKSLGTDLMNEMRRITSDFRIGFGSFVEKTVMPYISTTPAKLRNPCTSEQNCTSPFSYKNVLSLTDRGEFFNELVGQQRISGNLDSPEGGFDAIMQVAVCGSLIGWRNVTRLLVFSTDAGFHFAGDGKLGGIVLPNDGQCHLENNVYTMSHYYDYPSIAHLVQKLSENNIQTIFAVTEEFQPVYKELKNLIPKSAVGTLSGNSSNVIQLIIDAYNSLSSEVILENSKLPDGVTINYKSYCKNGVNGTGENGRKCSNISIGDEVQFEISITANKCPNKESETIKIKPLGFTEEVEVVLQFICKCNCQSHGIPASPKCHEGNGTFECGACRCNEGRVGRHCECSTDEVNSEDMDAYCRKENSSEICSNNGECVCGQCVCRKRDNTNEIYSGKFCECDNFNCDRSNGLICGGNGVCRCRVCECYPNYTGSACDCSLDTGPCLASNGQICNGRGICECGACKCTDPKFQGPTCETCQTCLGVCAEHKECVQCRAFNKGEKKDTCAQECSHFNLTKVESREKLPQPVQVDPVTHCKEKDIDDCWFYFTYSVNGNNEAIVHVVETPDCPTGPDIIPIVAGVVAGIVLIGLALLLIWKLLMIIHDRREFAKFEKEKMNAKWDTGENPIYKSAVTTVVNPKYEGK"}, "source": "paper doi:10.1101/814533", "key": {"[1]": {"target": "thrombospondin-1 (Thbs1), mouse (mouse (endogenous in C57BL/6J arteries)) (UniProt P35441)", "experiment": "proximity ligation"}, "[2]": {"target": "thrombospondin-1 (Thbs1), mouse (mouse (endogenous in C57BL/6J arteries)) (UniProt P35441)", "experiment": "proximity ligation", "remark": "listed apart in the source"}}, "note": "Where two headings read alike, the source gives them in different places. Results are given in words; binding and its absence hold for the method and conditions named. Binding seen in cells or lysates may run through a third protein. Some entries that bind do so weakly or less than the wild type.", "data": [{"substance": "integrin β1, mouse (from UniProt P09055 21-798) (receptor)", "values": [{"measurement": "binding", "setting": "[1]", "result": "binds"}, {"measurement": "binding", "setting": "[2]", "result": "binds"}]}]}
